Data reported in patent EP4628512A1 (Innovent Biologics (Suzhou) Co., Ltd., dated 2025).
Results are given in words; binding and its absence hold for the method and conditions named. Some entries that bind do so weakly or less than the wild type.

Protein sequences, listed by entry. Tags and fused reporters are not part of them. Residues count along the entry.
UniProt O15123, residues 275-496: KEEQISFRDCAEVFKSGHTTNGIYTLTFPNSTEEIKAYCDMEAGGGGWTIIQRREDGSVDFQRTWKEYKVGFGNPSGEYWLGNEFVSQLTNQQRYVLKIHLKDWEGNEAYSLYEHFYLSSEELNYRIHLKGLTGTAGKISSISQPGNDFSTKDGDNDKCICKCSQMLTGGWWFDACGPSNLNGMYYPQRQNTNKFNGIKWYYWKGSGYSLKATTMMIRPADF

B1: IAR044-030 (other)
chain: EVQLLESGGGLVQPGGSLRLSCAASGFALDYYAIGWFRQAPGKGLEGVSCISSGEGSTYYADSVKGRFTISRDNSKNTVYLQMNSLRAEDTAVYYCATDSRGDDVACEGLRRNEYDYWGQGTLVTVSSGGGGGGGGGGSDTGRPFVEMYSEIPEIIHMTEGRELVIPCRVTSPNITVTLKKFPLDTLIPDGKRIIWDSRKGFIISNATYKEIGLLTCEATVNGHLYKTNYLTHRQTNTIIDVVLSPSHGIELSVGEKLVLNCTARTELNVGIDFNWEYPSSKHQHKKLVNRDLKTQSGSEMKKFLSTLTIDGVTRSDQGLYTCAASSGLMTKKNSTFVRVHEKESKYGPPCPPCPPCGGGGGGGGGGEVQLVESGGGLVQPGGSLRLSCAASGSSFSPYAMGWYRQAPGKQRELVSATSEGGFTLYADSVKGRFTISRDNSKNTVYLQMNSLRAEDTAVYYCYMHWRGSDPENYWGQGTQVTVSS
notes: No Fc; also called anti-VEGFA/VEGFC/Ang2 multi-specific fusion protein
B2: IAR044-032 (other)
chain: EVQLLESGGGLVQPGGSLRLSCAASGFALDYYAIGWFRQAPGKGLEGVSCISSGEGSTYYADSVKGRFTISRDNSKNTVYLQMNSLRAEDTAVYYCATDSRGDDVACEGLRRNEYDYWGQGTLVTVSSGGGGGGGGGGSDTGRPFVEMYSEIPEIIHMTEGRELVIPCRVTSPNITVTLKKFPLDTLIPDGKRIIWDSRKGFIISNATYKEIGLLTCEATVNGHLYKTNYLTHRQTNTIIDVVLSPSHGIELSVGEKLVLNCTARTELNVGIDFNWEYPSSKHQHKKLVNRDLKTQSGSEMKKFLSTLTIDGVTRSDQGLYTCAASSGLMTKKNSTFVRVHEKEKTHTCPPCPPCGGGGGGGGGGEVQLVESGGGLVQPGGSLRLSCAASGSSFSPYAMGWYRQAPGKQRELVSATSEGGFTLYADSVKGRFTISRDNSKNTVYLQMNSLRAEDTAVYYCYMHWRGSDPENYWGQGTQVTVSS
notes: as for B1

Molecular target: hAng2-Fc protein (Beijing Sino Biological) (human) (UniProt O15123)
Assay: flow cytometry blocking of hAng2-Fc binding to 293-tie2 cells; IC50 value not given

Binder | binding
B1 | binds
B2 | binds
